{
  "source": "patent US12729225B2",
  "about": "“Non-canonical SWI/SNF complex and uses thereof” (Dana-Farber Cancer Institute, Inc., priority 2018, dated 2026)",
  "molecules": {"B1": {"name": "C11orf57 (protein, UniProt Q6ZUT1 1-292, looked up)", "Uncharacterized protein NKAPD1": "MSRIPLGKVLLRNVIRHTDAHNKIQEESDMWKIRELEKQMEDAYRGTKRKMLPSSSSRMRSDGFDEESQRYYWRPKNEISGTLEDDFLKAKSWNKKFYDYEANMPDRWGHSGYKELYPEEFETDSDQQDITNGKKTSPQVKSSTHESRKHKKSKKSHKKKQKKRSHKKQKKSKKEATDITADSSSEFSEETGASGTRKGKQPHKRKKKSRKKSLKKPALFLEAESNTSHSDDSASSSSEESEERDTKKTKRKKREKKAHTSVANNEIQERTNKRTNWKVATDERSAESSEDD"}, "B2": {"name": "ACOT9 (protein, UniProt Q9Y305 22-439, looked up)", "Acyl-coenzyme A thioesterase …": "LTQGPQNPKKQGIFHIHEVRDKLREIVGASTNWRDHVKAMEERKLLHSFLAKSQDGLPPRRMKDSYIEVLLPLGSEPELREKYLTVQNTVRFGRILEDLDSLGVLICYMHNKIHSAKMSPLSIVTALVDKIDMCKKSLSPEQDIKFSGHVSWVGKTSMEVKMQMFQLHGDEFCPVLDATFVMVARDSENKGPAFVNPLIPESPEEEELFRQGELNKGRRIAFSSTSLLKMAPSAEERTTIHEMFLSTLDPKTISFRSRVLPSNAVWMENSKLKSLEICHPQERNIFNRIFGGFLMRKAYELAWATACSFGGSRPFVVAVDDIMFQKPVEVGSLLFLSSQVCFTQNNYIQVRVHSEVASLQEKQHTTTNVFHFTFMSEKEVPLVFPKTYGESMLYLDGQRHFNSMSGPATLRKDYLVEP"}, "B3": {"name": "PRDX4 (protein, UniProt Q13162 38-271, looked up)", "Peroxiredoxin-4": "WETEERPRTREEECHFYAGGQVYPGEASRVSVADHSLHLSKAKISKPAPYWEGTAVIDGEFKELKLTDYRGKYLVFFFYPLDFTFVCPTEIIAFGDRLEEFRSINTEVVACSVDSQFTHLAWINTPRRQGGLGPIRIPLLSDLTHQISKDYGVYLEDSGHTLRGLFIIDDKGILRQITLNDLPVGRSVDETLRLVQAFQYTDKHGEVCPAGWKPGSETIIPDPAGKLKYFDKLN"}, "B4": {"name": "DEK (protein, UniProt P35659 2-375, looked up)", "Protein DEK": "SASAPAAEGEGTPTQPASEKEPEMPGPREESEEEEDEDDEEEEEEEKEKSLIVEGKREKKKVERLTMQVSSLQREPFTIAQGKGQKLCEIERIHFFLSKKKTDELRNLHKLLYNRPGTVSSLKKNVGQFSGFPFEKGSVQYKKKEEMLKKFRNAMLKSICEVLDLERSGVNSELVKRILNFLMHPKPSGKPLPKSKKTCSKGSKKERNSSGMARKAKRTKCPEILSDESSSDEDEKKNKEESSDDEDKESEEEPPKKTAKREKPKQKATSKSKKSVKSANVKKADSSTTKKNQNSSKKESESEDSSDDEPLIKKLKKPPTDEELKETIKKLLASANLEEVTMKQICKKVYENYPTYDLTERKDFIKTTVKELIS"}, "B5": {"name": "P4HA2 (protein, UniProt O15460 22-535, looked up)", "Prolyl 4-hydroxylase subunit …": "EFFTSIGHMTDLIYAEKELVQSLKEYILVEEAKLSKIKSWANKMEALTSKSAADAEGYLAHPVNAYKLVKRLNTDWPALEDLVLQDSAAGFIANLSVQRQFFPTDEDEIGAAKALMRLQDTYRLDPGTISRGELPGTKYQAMLSVDDCFGMGRSAYNEGDYYHTVLWMEQVLKQLDAGEEATTTKSQVLDYLSYAVFQLGDLHRALELTRRLLSLDPSHERAGGNLRYFEQLLEEEREKTLTNQTEAELATPEGIYERPVDYLPERDVYESLCRGEGVKLTPRRQKRLFCRYHHGNRAPQLLIAPFKEEDEWDSPHIVRYYDVMSDEEIERIKEIAKPKLARATVRDPKTGVLTVASYRVSKSSWLEEDDDPVVARVNRRMQHITGLTVKTAELLQVANYGVGGQYEPHFDFSRNDERDTFKHLGTGNRVATFLNYMSDVEAGGATVFPDLGAAIWPKKGTAVFWYNLLRSGEGDYRTRHAACPVLVGCKWVSNKWFHERGQEFLRPCGSTEVD"}, "B6": {"name": "SRSF7 (protein, UniProt Q16629 1-238, looked up)", "Serine/arginine-rich splicing …": "MSRYGRYGGETKVYVGNLGTGAGKGELERAFSYYGPLRTVWIARNPPGFAFVEFEDPRDAEDAVRGLDGKVICGSRVRVELSTGMPRRSRFDRPPARRPFDPNDRCYECGEKGHYAYDCHRYSRRRRSRSRSRSHSRSRGRRYSRSRSRSRGRRSRSASPRRSRSISLRRSRSASLRRSRSGSIKGSRYFQSPSRSRSRSRSISRPRSSRSKSRSPSPKRSRSPSGSPRRSASPERMD"}},
  "tested_on": "mSWI/SNF complexes",
  "test": "mSWI/SNF complex purification with HA-tagged baits and mass spectrometry (peptide counts)",
  "design": "species or system human",
  "conditions": "293_HA-BRD7 bait purification, mass spectrometry; for Total: total peptides per co-purified protein; for Unique: unique peptides per co-purified protein",
  "data": [
    {"molecule": "B1", "values": [
      {"measurement": "Total", "value": 3},
      {"measurement": "Unique", "value": 3}
    ]},
    {"molecule": "B2", "values": [
      {"measurement": "Total", "value": 3},
      {"measurement": "Unique", "value": 3}
    ]},
    {"molecule": "B3", "values": [
      {"measurement": "Total", "value": 3},
      {"measurement": "Unique", "value": 3}
    ]},
    {"molecule": "B4", "values": [
      {"measurement": "Total", "value": 3},
      {"measurement": "Unique", "value": 3}
    ]},
    {"molecule": "B5", "values": [
      {"measurement": "Total", "value": 3},
      {"measurement": "Unique", "value": 3}
    ]},
    {"molecule": "B6", "values": [
      {"measurement": "Total", "value": 3},
      {"measurement": "Unique", "value": 3}
    ]}
  ]
}
